Laboratory results as given in the supplement of paper PMC4635364.
Structures can show the parent of a compound that is named as a salt. This is one part of the list. Single values are uncertain here, since repeats match poorly.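 Cells: ReNCell VM human fetal ventral-midbrain neural progenitors, differentiated mitogen-free. Blinded raters compared doublecortin-stained (early neurons) or tyrosine hydroxylase-stained (dopaminergic neurons) images with untreated wells, where 0 means no change. After repeats and both raters were averaged, compounds scoring 2 or above became hits for retesting.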

Tested on: ReNCell VM
Assay: dopaminergic neuron differentiation score (TH+ cell fraction vs untreated, manual image score) (score (0 to 3)); higher = more TH+ dopaminergic neuron differentiation
Conditions: library: Tocriscreen; 2 uM; 4 weeks; BDNF 10 ng/ml + GDNF 10 ng/ml

Dopaminergic neuron differentiation score, inactive:
Cc1ccc(/C=N/NC(=O)c2ccccc2Oc2ccccc2)o1 0, O=c1[nH]ccc2c(S(=O)(=O)N3CCCNCC3)cccc12 [HA 1100 hydrochloride] 0, C/C(=N\NC(=O)C1C(=O)NCC1c1ccccc1)c1cccc(Br)c1 (centres undefined) 0, COc1cc2ncnc(Nc3ccc(Oc4ccccc4)cc3)c2cc1OC 0
